Results reported in patent publication US20250243219A1, “MACROCYCLIC COMPOUNDS AND USES THEREOF” (Cypralis Limited, priority 2022, published 2025).
For at least one compound, name, drawing or mass did not settle the structure.

Tested on: SH-SY5Y cells
Assay: Thapsigargin treated cell death assay in SH-SY5Y cells
Type: cell-based, human
Conditions: compound at 10 μM; positive = protection from cell death, negative = compound toxicity
From the text: Thapsigargin raises intracellular free calcium (Ca^2+) by potently inhibiting the endoplasmic reticulum Ca-ATPase, which sequesters Ca^2+ from the cytosol. The increased cytosolic Ca^2+ concentration is buffered by mitochondria by exchanging Ca^2+ for K, leading to depolarisation in the inner mitochondrial membrane and permeability transition.
The thapsigargin treated Jurkat cell death assay is a homogeneous 96 well plate based assay for cell death, instigated by the opening of the mitochondrial permeability transition pore (MPTP). The addition of thapsigargin to Jurkat cells results in an influx of calcium, the increase in intracellular calcium will initially be buffered by the mitochondria, but eventually the increasing calcium concentration will result in the opening of the MPTP, resulting in cell death.
CellTox™ Green is a dye which is unable to enter the cell until cell death leads to the loss of membrane integrity. Once this happens the CellTox™ Green enters the cell, binds to the cell's DNA and emits a fluorescent signal. […] Unless otherwise stated, the assay is typically run using a range of three compound concentrations of 1, 3 and 10 μM in triplicate and is read kinetically over a period of 24 hours. Compounds are added 30 minutes before the addition of thapsigargin. […] Results are typically calculated at the 8 hour time point and the kinetic data is also reported. […]

Structure (SMILES) | SYSY [10 μM] % recovery [%]
CC(C)[C@@H]1OC(=O)C2(/C=C/c3ccc4ccc(nc4c3)N(C)N(C)C(=O)[C@@H]3CCCN(N3)C(=O)[C@H](C)NC1=O)COCOC2 [(19)] | 5.7
CC(C)[C@H]1OC(=O)C(C)(C)/C=C/c2ccc3ccc(nc3c2)N(C)NC(=O)[C@@H]2CCCN(N2)C(=O)[C@H](C)NC1=O [Compound (3)] | 0.6
